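The test systems are human melanoma cell lines, treated with two drugs together for 72 h and then stained and imaged. The read-out is the fraction of cleaved-PARP-positive nuclei, in % of that fraction in the DMSO control; 200 means twice the control level of this apoptosis marker. Concentrations were fixed for each drug; these are the higher of two levels. The file gives one value for each pair and line, without errors, so small differences may be noise. Basal and induced levels differ widely between cell lines.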
An unselected part of the screen is shown.

Compounds and concentrations:
Src-I1, 10000 nM: COc1cc2ncnc(Nc3ccc(Oc4ccccc4)cc3)c2cc1OC
gemcitabine, 2 nM: Nc1ccn([C@@H]2O[C@H](CO)[C@@H](O)C2(F)F)c(=O)n1
lenalidomide, 5000 nM: Nc1cccc2c1CN(C1CCC(=O)NC1=O)C2=O (stereo not given)
crizotinib, 1000 nM: C[C@@H](Oc1cc(-c2cnn(C3CCNCC3)c2)cnc1N)c1c(Cl)ccc(F)c1Cl
JZL184, 5000 nM: O=C(Oc1ccc([N+](=O)[O-])cc1)N1CCC(C(O)(c2ccc3c(c2)OCO3)c2ccc3c(c2)OCO3)CC1
cediranib, 2000 nM: COc1cc2c(Oc3ccc4[nH]c(C)cc4c3F)ncnc2cc1OCCCN1CCCC1
LFM-A13, 10000 nM: C/C(O)=C(\C#N)C(=O)Nc1cc(Br)ccc1Br
nilutamide, 5000 nM: CC1(C)NC(=O)N(c2ccc([N+](=O)[O-])c(C(F)(F)F)c2)C1=O
veliparib, 7000 nM: C[C@]1(c2nc3c(C(N)=O)cccc3[nH]2)CCCN1
PLX4720, 400 nM: CCCS(=O)(=O)Nc1ccc(F)c(C(=O)c2c[nH]c3ncc(Cl)cc23)c1F
GW441756, 2000 nM: Cn1cc(/C=C2\C(=O)Nc3cccnc32)c2ccccc21
midostaurin, 400 nM: CO[C@@H]1[C@H](N(C)C(=O)c2ccccc2)C[C@H]2O[C@]1(C)n1c3ccccc3c3c4c(c5c6ccccc6n2c5c31)C(=O)NC4
MK-1775, 100 nM: C=CCn1c(=O)c2cnc(Nc3ccc(N4CCN(C)CC4)cc3)nc2n1-c1cccc(C(C)(C)O)n1
everolimus, 100 nM: CO[C@H]1C[C@@H]2CC[C@@H](C)[C@@](O)(O2)C(=O)C(=O)N2CCCC[C@H]2C(=O)O[C@H]([C@H](C)C[C@@H]2CC[C@@H](OCCO)[C@H](OC)C2)CC(=O)[C@H](C)/C=C(\C)[C@@H](O)[C@@H](OC)C(=O)[C@H](C)C[C@H](C)/C=C/C=C/C=C/1C
nilotinib, 1000 nM: Cc1cn(-c2cc(NC(=O)c3ccc(C)c(Nc4nccc(-c5cccnc5)n4)c3)cc(C(F)(F)F)c2)cn1
TCS401, 8330 nM: O=C(O)C(=O)Nc1sc2c(c1C(=O)O)CCNC2
AZD7762, 100 nM: NC(=O)Nc1cc(-c2cccc(F)c2)sc1C(=O)N[C@H]1CCCNC1
pazopanib, 2000 nM: Cc1ccc(Nc2nccc(N(C)c3ccc4c(C)n(C)nc4c3)n2)cc1S(N)(=O)=O
perifosine, 2000 nM: CCCCCCCCCCCCCCCCCCOP(=O)([O-])OC1CC[N+](C)(C)CC1
CX-4945, 2000 nM: O=C(O)c1ccc2c(c1)nc(Nc1cccc(Cl)c1)c1ccncc12
PF-562271, 400 nM: CN(c1ncccc1CNc1nc(Nc2ccc3c(c2)CC(=O)N3)ncc1C(F)(F)F)S(C)(=O)=O

- Src-I1 and lenalidomide : RPMI-7951: 233; WM3619: 126; SK-MEL-30: 88.0; IPC-298: 113; UACC-62: 567
- CX-4945 and cediranib : RPMI-7951: 140; WM3619: 137; SK-MEL-30: 267; IPC-298: 137; UACC-62: 253
- AZD7762 and lenalidomide : RPMI-7951: 178; WM3619: 603; SK-MEL-30: 165; IPC-298: 78.6; UACC-62: 97.7
- GW441756 and gemcitabine : RPMI-7951: 125; WM3619: 114; SK-MEL-30: 54.6; IPC-298: 386; UACC-62: 211
- PLX4720 and MK-1775 : RPMI-7951: 48.9; WM3619: 214; SK-MEL-30: 205; IPC-298: 189; UACC-62: 344
- cediranib and PF-562271 : RPMI-7951: 194; WM3619: 102; SK-MEL-30: 135; IPC-298: 176; UACC-62: 175
- LFM-A13 and midostaurin : RPMI-7951: 144; WM3619: 143; SK-MEL-30: 205; IPC-298: 147; UACC-62: 638
- midostaurin and nilotinib : RPMI-7951: 479; WM3619: 221; SK-MEL-30: 209; IPC-298: 88.5; UACC-62: 159
- pazopanib and veliparib : RPMI-7951: 190; WM3619: 104; SK-MEL-30: 61.7; IPC-298: 65.8; UACC-62: 121
- JZL184 and everolimus : RPMI-7951: 472; WM3619: 103; SK-MEL-30: 410; IPC-298: 215; UACC-62: 371
- crizotinib and perifosine : RPMI-7951: 89.2; WM3619: 104; SK-MEL-30: 96.1; IPC-298: 79.1; UACC-62: 161
- nilutamide and TCS401 : RPMI-7951: 72.4; WM3619: 145; SK-MEL-30: 188; IPC-298: 131; UACC-62: 21.8

For reference, 2 entries once more:

Combination	RPMI-7951	WM3619	SK-MEL-30	IPC-298	UACC-62
midostaurin and nilotinib	479	221	209	88.5	159
GW441756 and gemcitabine	125	114	54.6	386	211

Values as published with doi:10.1371/journal.pone.0140310, rounded.